# Measurements published in ChEMBL document CHEMBL4513141, “CO-ADD screening of NIH (USA) - Clinical Collection” (2021).
# The list shows a part of the results. Entries with a potency or affinity are not part of this list.
# System: Acinetobacter baumannii
# Conditions: Concentration 20 uM; ASSAY_TEST Inhibition of Bacterial Growth; detection method Absorption (OD600); MEDIA CAMHB; plate type 384well; NBS; CORNING #3640; time 18 hr
row,SMILES,Inhibition
1,COc1ccc(CN2CCN(C(c3ccc(F)cc3)c3ccc(F)cc3)CC2)c(OC)c1OC.Cl.Cl,17.33%
2,CC(C)(S)C(N)C(=O)O (stereo not drawn) [DL-PENICILLAMINE],22.2%
3,COc1cc(C(=O)NC2CCCNC2)cc(OC)c1OC (centres undefined) [TROXIPIDE],20.3%
4,c1ccc2[nH]c(-c3cscn3)nc2c1 [THIABENDAZOLE],17.74%
5,CN1CCN(CCCN2c3ccccc3Sc3ccc(Cl)cc32)CC1.O=C(O)/C=C\C(=O)O.O=C(O)/C=C\C(=O)O [PROCHLORPERAZINE MALEATE],25.43%
6,"CCN(CC)C(=O)[C@]1(c2ccccc2)C[C@@H]1CN.Cl [1R,2S-MILNACIPRAN HYDROCHLORIDE]",28.51%
7,CCc1cccc2c3c([nH]c12)C(CC)(CC(=O)O)OCC3 (centres undefined) [ETODOLAC],21.05%
8,CC1=C(CC(=O)O)c2cc(F)ccc2/C1=C\c1ccc([S+](C)[O-])cc1 (centres undefined),22.33%
9,Cl.NC1CCN(c2cccc(Cl)n2)CC1,5.11%
10,CN(CCOc1ccc(CC2SC(=O)NC2=O)cc1)c1ccccn1.O=C(O)/C=C\C(=O)O (centres undefined) [ROSIGLITAZONE MALEATE],18.39%
11,Cl.O.O=C(c1ccc(F)cc1)C1CCN(CCn2c(=S)[nH]c3ccccc3c2=O)CC1,8.41%
12,COc1ccc2[nH]c([S+]([O-])Cc3ncc(C)c(OC)c3C)nc2c1 (centres undefined) [OMEPRAZOLE],7.26%
13,N=c1cc(N2CCCCC2)nc(N)n1O,20.47%
14,Cl.O=c1n(CCCN2CCN(c3cccc(Cl)c3)CC2)nc2ccccn12 [TRAZODONE HYDROCHLORIDE],9.41%
15,CNCCCN1c2ccccc2CCc2ccccc21.Cl [DESIPRAMINE HYDROCHLORIDE],28.7%
16,COC(=O)CCc1ccc(OCC(O)CNC(C)C)cc1.Cl (centres undefined) [ESMOLOL HYDROCHLORIDE],15.72%
17,CC(C)Cc1ccc(C(C)C(=O)O)cc1 (centres undefined) [IBUPROFEN],9.08%
18,Br.Br.O=C1CC2(CCCC2)CC(=O)N1CCNCC1COc2ccccc2O1 (centres undefined),31.64%
19,C[C@]12CCC(=O)C=C1CC[C@@H]1[C@@H]2[C@@H](O)C[C@@]2(C)[C@H]1CC[C@]2(O)C(=O)CO [HYDROCORTISONE],3.9%
20,CCN1CCC[C@H]1CNC(=O)c1c(O)c(Cl)cc(Cl)c1OC [RACLOPRIDE],10.65%
21,O.OC[C@H]1O[C@@H](n2cnc3c(NC4CCCC4)nc(Cl)nc32)[C@@H](O)C1O (some centres undefined),14.41%
22,CSc1ccc2c(c1)N(CCC1CCCCN1C)c1ccccc1S2.Cl (centres undefined) [THIORIDAZINE HYDROCHLORIDE],9.91%
23,CCCCC[C@H](O)/C=C/[C@H]1[C@H](O)CC(=O)[C@@H]1CCCCCCC(=O)O [ALPROSTADIL],14.8%

row,SMILES,Inhibition
1,CC[C@H](C)C(=O)O[C@H]1C[C@H](O)C=C2C=C[C@H](C)[C@H](CC[C@@H](O)C[C@@H](O)CC(=O)[O-])[C@H]21.[Na+] [PRAVASTATIN SODIUM],25.79%
2,C#C[C@]1(O)CC[C@H]2[C@@H]3CCc4cc(OC)ccc4[C@H]3CC[C@@]21C [MESTRANOL],18.25%
3,COc1cc([C@@H]2c3cc4c(cc3[C@@H](O[C@@H]3O[C@@H]5CO[C@@H](C)O[C@H]5[C@H](O)[C@H]3O)[C@H]3COC(=O)[C@H]23)OCO4)cc(OC)c1O [ETOPOSIDE],14.52%
4,O=C1CCc2ccc(OCCCCN3CCN(c4cccc(Cl)c4Cl)CC3)cc2N1 [ARIPIPRAZOLE],15.04%
5,CN(C/C=C/C#CC(C)(C)C)Cc1cccc2ccccc12.Cl [TERBINAFINE HYDROCHLORIDE],27.2%
6,COC(=O)C1=C(C)NC(C)=C(C(=O)OCC(C)C)C1c1ccccc1[N+](=O)[O-] (centres undefined) [NISOLDIPINE],27.99%
7,O=C1[C@H](CC[C@H](O)c2ccc(F)cc2)[C@@H](c2ccc(O)cc2)N1c1ccc(F)cc1 [EZETIMIBE],11.71%
8,CN(C)CCN(Cc1ccccc1)c1ccccn1.Cl [TRIPELENNAMINE HYDROCHLORIDE],11.98%
9,Cc1cnc(C(=O)NCCc2ccc(S(=O)(=O)NC(=O)NC3CCCCC3)cc2)cn1 [GLIPIZIDE],16.47%
10,O=C(O)COCCN1CCN([C@H](c2ccccc2)c2ccc(Cl)cc2)CC1 [LEVOCETIRIZINE],19.94%
11,CN(C)CC[C@@H](c1ccc(Br)cc1)c1ccccn1.O=C(O)/C=C\C(=O)O [DEXBROMPHENIRAMINE MALEATE],3.09%
12,CCCN1CCCC[C@H]1C(=O)Nc1c(C)cccc1C.Cl [ROPIVACAINE HYDROCHLORIDE],26.89%
13,Br.CN(C)CCCC1(c2ccc(F)cc2)OCc2cc(C#N)ccc21 (centres undefined) [CITALOPRAM HYDROBROMIDE],7.47%
14,CC[C@H]1OC(=O)[C@H](C)C(=O)[C@H](C)[C@@H](O[C@@H]2O[C@H](C)C[C@H](N(C)C)[C@H]2O)[C@](C)(OC)C[C@@H](C)C(=O)[C@H](C)[C@@H]2N(CCCCn3cnc(-c4cccnc4)c3)C(=O)O[C@@]21C,8.47%
15,CC(C)NCC(O)c1cc(O)cc(O)c1 (centres undefined) [METAPROTERENOL],9.69%
16,Cc1cccc(Nc2ccccc2C(=O)O)c1C [MEFENAMIC ACID],30.29%
17,CN(C)C(=O)Oc1ccc[n+](C)c1.[Br-] [PYRIDOSTIGMINE BROMIDE],21.77%
18,CC(=O)OCC(=O)[C@@]12OC(C)(C)O[C@@H]1C[C@H]1[C@@H]3C[C@H](F)C4=CC(=O)C=C[C@]4(C)[C@@]3(F)[C@@H](O)C[C@@]12C [FLUOCINONIDE],20.38%
19,O=C1CCC(N2C(=O)c3ccccc3C2=O)C(=O)N1 (centres undefined) [THALIDOMIDE],24.03%
20,CN1CCc2cc(Cl)c(O)cc2[C@@H](c2ccccc2)C1.Cl,15.46%
21,Nc1nc(O)c2ncn(CCC(CO)CO)c2n1 [PENCICLOVIR],30.92%
22,COC(=O)C1=C(C)NC(C)=C(C(=O)OC(C)C)C1c1cccc2nonc12 (centres undefined) [ISRADIPINE],18.51%
23,CC(=O)SCC(Cc1ccccc1)C(=O)NCC(=O)OCc1ccccc1 (centres undefined) [RACECADOTRIL],14.64%

# Taken from the entries so far (2 entries):
row,SMILES,Inhibition
9,Cc1cnc(C(=O)NCCc2ccc(S(=O)(=O)NC(=O)NC3CCCCC3)cc2)cn1 [GLIPIZIDE],16.47%
10,O=C(O)COCCN1CCN([C@H](c2ccccc2)c2ccc(Cl)cc2)CC1 [LEVOCETIRIZINE],19.94%

# The list goes on.

row,SMILES,Inhibition
1,Cn1cnc([N+](=O)[O-])c1Sc1ncnc2[nH]cnc12 [AZATHIOPRINE],25.3%
2,OCCN1C[C@H](O)[C@@H](O)[C@H](O)[C@H]1CO [MIGLITOL],27.09%
3,COc1ccc([C@@H]2Sc3ccccc3N(CCN(C)C)C(=O)[C@@H]2OC(C)=O)cc1.Cl [DILTIAZEM HYDROCHLORIDE],31.21%
4,C[C@H]1C[C@@H]2[C@H]([C@@H](O)C[C@@]3(C)[C@H]2CC[C@]3(O)C(=O)CO)[C@@]2(C)C=CC(=O)C=C12 [METHYLPREDNISOLONE],19.64%
5,CC(COc1ccccc1Cc1ccccc1)N1CCCCC1.O=P(O)(O)O (centres undefined),36.86%
6,Nc1ccn([C@@H]2CS[C@H](CO)O2)c(=O)n1 [LAMIVUDINE],11.08%
7,COc1ccccc1OCC(O)COC(N)=O (centres undefined) [METHOCARBAMOL],17.05%
8,Cl.Clc1cccc(Cl)c1NC1=NCCN1 [CLONIDINE HYDROCHLORIDE],8.13%
9,C#C[C@]1(O)CC[C@H]2[C@@H]3CCC4=Cc5oncc5C[C@]4(C)[C@H]3CC[C@@]21C [DANAZOL],26.36%
10,CCC(=O)OCC(=O)[C@@]1(OC(=O)CC)[C@@H](C)C[C@H]2[C@@H]3CCC4=CC(=O)C=C[C@]4(C)[C@@]3(Cl)[C@@H](O)C[C@@]21C [BECLOMETHASONE DIPROPIONATE],18.55%
11,CC[C@@H]1C(=O)OC[C@@H]1Cc1cncn1C.Cl [PILOCARPINE HYDROCHLORIDE],29.28%
12,C=C1/C(=C\C=C2/CCC[C@]3(C)[C@@H]([C@H](C)CCCC(C)(C)O)CC[C@@H]23)C[C@@H](O)C[C@@H]1O [CALCITRIOL],24.08%
13,COc1ccccc1OCC(O)CN1CCN(CC(=O)Nc2c(C)cccc2C)CC1.Cl.Cl (centres undefined) [RANOLAZINE HYDROCHLORIDE],15.85%
14,Cc1ccc(S(=O)(=O)NC(=O)NN2CCCCCC2)cc1 [TOLAZAMIDE],16.02%
15,CCCCC(=O)OC1(C(=O)CO)CCC2C3CCC4=CC(=O)CCC4(C)C3C(O)CC21C (centres undefined),18.5%
16,NC(N)=Nc1nc(CSCC/C(N)=N/S(N)(=O)=O)cs1 [FAMOTIDINE],2.64%
17,CC1=C(/C=C/C(C)=C/C=C/C(C)=C\C(=O)O)C(C)(C)CCC1 [ISOTRETINOIN],13.74%
18,CC(C)[N+]1(C)C2CCC1CC(OC(=O)C(CO)c1ccccc1)C2.[Br-] (centres undefined),16.29%
19,CC(C)c1ccc2c(c1)c(SC(C)(C)C)c(CC(C)(C)C(=O)O)n2Cc1ccc(Cl)cc1,26.37%
20,CC1CC2C3CCC4=CC(=O)C=CC4(C)[C@@]3(Cl)C(O)CC2(C)C1(O)C(=O)CO (some centres undefined),27.71%
21,CC(Oc1c(Cl)cccc1Cl)C1=NCCN1.Cl (centres undefined) [LOFEXIDINE HYDROCHLORIDE],19.83%
22,CO[C@H]1O[C@@H]2O[C@@]3(C)CC[C@H]4[C@H](C)CC[C@@H]([C@H]1C)[C@@]24OO3,30.63%
23,Cl.O=C1[C@H]2CCCC[C@H]2C(=O)N1CCCCN1CCN(c2nsc3ccccc23)CC1,23.42%

# Looked up above:
# Inhibition with `c1ccc2[nH]c(-c3cscn3)nc2c1` [THIABENDAZOLE] is entered as 17.74%
# Inhibition with `Cl.NC1CCN(c2cccc(Cl)n2)CC1` is entered as 5.11%
# Inhibition with `CC1=C(CC(=O)O)c2cc(F)ccc2/C1=C\c1ccc([S+](C)[O-])cc1` (centres undefined) is entered as 22.33%
